Measurements reported in PMC11727070.
No constants are given. Whether binding was seen depends on the method and setting. Some binding calls cover weakened binding; strength is not graded here.

Sequences of proteins named here, by UniProt entry; tags and fusion partners are left off. A change or cut given only in a name is not applied to a line headed by its entry. A line that says so, or that is headed by a name, gives the form on record, which may keep a tag or linker. Residues count along the entry.
SUMO-tagged WIPI3^Δ (human WIPI3 residues 8–344 without residues 264–281) (Q5MNZ6, form named): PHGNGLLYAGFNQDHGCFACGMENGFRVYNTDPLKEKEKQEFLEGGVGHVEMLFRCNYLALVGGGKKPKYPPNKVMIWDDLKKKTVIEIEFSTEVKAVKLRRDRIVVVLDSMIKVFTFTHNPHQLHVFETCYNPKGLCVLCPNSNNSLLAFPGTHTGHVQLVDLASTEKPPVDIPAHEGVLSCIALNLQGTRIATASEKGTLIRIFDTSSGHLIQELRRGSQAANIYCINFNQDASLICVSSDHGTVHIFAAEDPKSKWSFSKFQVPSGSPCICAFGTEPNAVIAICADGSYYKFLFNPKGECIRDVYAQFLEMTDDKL

Molecular target: SUMO-tagged WIPI3^Δ (human WIPI3 residues 8–344 without residues 264–281) (human) (UniProt Q5MNZ6)
Test: SEC; competition: a pre-formed complex incubated with an increasing molar ratio of the competitor, then SEC; fractions analysed by SDS-PAGE with Coomassie staining; both purified

B1: Trx-ATG2A(1378–1402) (peptide, UniProt Q2TAZ0 1378-1402)
chain: EPVVTQLHPGPIVVRDGYFSRPIGS
With B1 the binding was “binds”.
